Data reported in patent US4499081A (Nyegaard & Co A/S, priority 1982, dated 1985).

Assay: general procedure: solution-phase peptide synthesis; p-nitrophenyl active esters with TEA in DMF
Settings: coupling step

BENZYLOXYCARBONYL-L-PYROGLUTAMYL-(γ-BENZYL)-L-GLUTAMYL-(β-BENZYL)-L-ASPARTYL-(S-p-METHOXYBENZYL)-L-CYSTEINYL-(ε-BENZYL-OXYCARBONYL)-L-LYSINE BENZYLESTER
step yield: 96%

t-Boc-(γ-BENZYL)-L-GLUTAMYL-(β-BENZYL)-L-ASPARTYL-(S-p-METHOXYBENZYL)-L-CYSTEINYL-(ε-BENZYLOXYCARBONYL)-L-LYSINE BENZYLESTER
step yield: 100%
